The supplement of paper PMC12889115
This is one part of the list. These are raw signals, not scaled to a control.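 First-pass screen: polymyxin B was added at a level that permeabilizes the Salmonella outer membrane while sparing the inner membrane. DMSO wells, with and without polymyxin B, defined maximum growth. Because plates differed from one another, each plate's data were ranked separately and the compounds with the lowest OD600 were carried forward as hits.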

Test system: Salmonella enterica serovar Typhimurium SL1344
Test: bacterial growth OD600 after 18 h with compound and polymyxin B; higher = more bacterial growth (less inhibition)
Settings: 50 µM, Mueller-Hinton broth

With `CN(Cc1ccccc1)C1(CNC(=O)CCC(F)(F)F)Cc2ccccc2C1` the “bacterial growth OD600” value (polymyxin B 1 µg/mL) was 1.01.

With `CC(C)C(=O)N(C)C(Cc1ccccc1)C1CCN(C(=O)/C=C/c2cc(F)ccc2F)CC1` (centres undefined) the “bacterial growth OD600” value (polymyxin B 0.75 µg/mL) was -0.006.

`CCc1ccc(CN(C)C(=O)c2cc(OC)ccc2OC2CCN(C(=O)C3CC3)CC2)cc1` was tested, and the “bacterial growth OD600” value (polymyxin B 1 µg/mL) was 0.02.

`COCCCN1C(=O)CC(CC(=O)N2CCCCC2c2cccnc2)(c2ccccc2OC)C1=O` (centres undefined) was tested, and the “bacterial growth OD600” value (polymyxin B 0.75 µg/mL) was 0.832.

`O=C(NCC1CC(Cc2ccc(F)cc2)=NO1)/C(F)=C/c1ccccc1` (centres undefined) was tested, and the “bacterial growth OD600” value (polymyxin B 0.75 µg/mL) was 0.669.

With `CCOC(=O)C1(Cc2ccccc2C)CCCN(C(=O)c2cc(C3CC3)n[nH]2)C1` (centres undefined) the “bacterial growth OD600” value (polymyxin B 1 µg/mL) was 0.015.

For `Cn1ccnc1C1CCCCN1C(=O)CC1(c2cccc(F)c2)CC(=O)N(Cc2cccnc2)C1=O` (centres undefined), the “bacterial growth OD600” value (polymyxin B 0.75 µg/mL) was 0.977.

`CCCc1cc(C(=O)N2CCC3(CC2)c2ccccc2[C@@H](NC(=O)c2ccncc2)[C@@H]3OC)no1` was tested, and the “bacterial growth OD600” value (polymyxin B 0.75 µg/mL) was 0.814.

In the case of `Cc1ccc(C)c(-c2cn3c(C(=O)NCc4ccncc4)csc3n2)c1`, the “bacterial growth OD600” value (polymyxin B 0.75 µg/mL) is reported as 0.577.

`OCC1(Cc2ccc(F)cc2)CCCN(Cc2ccc(-n3cccn3)cc2)C1` (centres undefined) was tested, and the “bacterial growth OD600” value (polymyxin B 0.75 µg/mL) was 0.734.

For `CSCC(=O)N1CCCC(Nc2ccc(C(C)C)cc2)C1` (centres undefined), the “bacterial growth OD600” value (polymyxin B 1 µg/mL) was 1.01.

For `O=C(Nc1cccc(-c2cccc(Cl)c2)c1)C1CCN(C(=O)Cn2cccn2)CC1`, the “bacterial growth OD600” value (polymyxin B 1 µg/mL) was 0.641.

With `Cc1ccn(CC(=O)N(CC2CCN(Cc3ccccc3F)CC2)CC2CCCO2)n1` (centres undefined) the “bacterial growth OD600” value (polymyxin B 0.75 µg/mL) was 0.977.

In the case of `Cc1nonc1C1CCCN1c1ccc(-c2nc(C(C)C)no2)cn1` (centres undefined), the “bacterial growth OD600” value (polymyxin B 1 µg/mL) is reported as 0.869.

With `COc1ccc(/C=C/CN2CCCC(CO)(Cc3ccccc3F)C2)cc1` (centres undefined) the “bacterial growth OD600” value (polymyxin B 0.75 µg/mL) was 0.859.

In the case of `Cc1nc2ccccc2n1Cc1cc(C(=O)NCC(C)(C)CN(C)C)no1`, the “bacterial growth OD600” value (polymyxin B 0.75 µg/mL) is reported as 0.835.

With `COc1cc(CC2(CCC(=O)N3CCC(c4ccc(F)cc4)C3)CCC(=O)N2)ccc1F` (centres undefined) the “bacterial growth OD600” value (polymyxin B 0.75 µg/mL) was 0.79.

In the case of `CN(Cc1ccc(-n2cccn2)cc1)C(=O)c1cn(C2CC2)cc(C(=O)NC2CCCCC2)c1=O`, the “bacterial growth OD600” value (polymyxin B 0.75 µg/mL) is reported as 0.762.

In the case of `COC(=O)[C@]1(C)C[C@H](C(=O)NCCSC)[C@H](c2ccccc2Cl)N1C`, the “bacterial growth OD600” value (polymyxin B 0.75 µg/mL) is reported as 0.696.
